# Library screening results

The chains behind the UniProt entries cited, without tags or fusion partners.
UniProt E9BF75, entry or part of it: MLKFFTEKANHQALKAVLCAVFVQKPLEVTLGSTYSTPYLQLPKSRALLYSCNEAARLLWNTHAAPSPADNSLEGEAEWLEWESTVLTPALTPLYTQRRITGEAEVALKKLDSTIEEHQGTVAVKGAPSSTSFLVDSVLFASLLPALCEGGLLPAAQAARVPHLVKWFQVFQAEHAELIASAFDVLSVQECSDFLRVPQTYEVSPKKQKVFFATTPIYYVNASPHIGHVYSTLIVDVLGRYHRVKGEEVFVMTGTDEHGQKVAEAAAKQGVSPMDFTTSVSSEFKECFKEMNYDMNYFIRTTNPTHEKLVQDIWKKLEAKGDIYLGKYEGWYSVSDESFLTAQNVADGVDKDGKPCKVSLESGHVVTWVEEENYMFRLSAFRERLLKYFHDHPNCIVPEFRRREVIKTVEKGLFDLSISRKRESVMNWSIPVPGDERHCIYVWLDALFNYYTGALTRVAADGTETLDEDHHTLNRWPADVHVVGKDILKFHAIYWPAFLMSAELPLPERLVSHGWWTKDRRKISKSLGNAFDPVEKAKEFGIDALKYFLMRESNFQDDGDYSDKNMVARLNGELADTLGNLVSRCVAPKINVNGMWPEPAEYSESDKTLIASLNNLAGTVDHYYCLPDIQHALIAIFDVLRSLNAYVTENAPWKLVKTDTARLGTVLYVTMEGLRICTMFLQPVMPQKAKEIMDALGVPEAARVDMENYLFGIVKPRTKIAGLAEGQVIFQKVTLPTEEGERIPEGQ

LdMetRS: 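Methionyl-tRNA synthetase (putative), Leishmania donovani (UniProt E9BF75). Primary screen of methionyl-tRNA synthetase; the read-out is not stated. The test concentration is not given. The values are filed as inhibition. Of about 68,000 compounds tested this way, about 24 (0.035%) reached 50% or more in at least one test.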
Mtb heat-shock: 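Assay on Mycobacterium tuberculosis, filed only as a heat shock assay from Cornell; the read-out is not stated. The concentration is filed as 10 mM, unlikely as a test dose, so the dose is not known. The record gives no direction; compounds that gave an IC50 in retests scored well above the rest, so higher reads as stronger inhibition. Size under these conditions: about 69,000 compounds, about 930 of them at 50% or above in at least one test.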

Results are percentages, as filed. The record does not define 0% and 100%; most values in the screen are far below 50% and negative numbers occur (in some assays of this library far below -100). This is an unselected part of the compounds tested.

Result for CC(C)C(=O)NCC(=O)N(C)C1CCCN(C2Cc3ccccc3C2)C1 (configuration not stated) was LdMetRS: 11.96%; Mtb heat-shock: 6.986%. Result for CCCn1cnnc1CNC1CSCCSC1 was LdMetRS: 3.663%; Mtb heat-shock: -12.85%. With CN1CC(=O)N(c2cccc(F)c2)CC12CCN(Cc1cccnc1)C2 (configuration not stated) the screen gave LdMetRS: 21.57%. With Cc1cnc(CN(C)C2CCN(CC(=O)Nc3nccs3)C2)o1 (configuration not stated) the screen gave LdMetRS: 12.68%; Mtb heat-shock: 66.08%. With Cc1ccc(CN2CC3(CCN(C(=O)c4cccnc4)C3)C2)o1.O=C(O)C(F)(F)F.O=C(O)C(F)(F)F the screen gave Mtb heat-shock: 25.41%. CN(C)C(=O)CC1CC2(CCN(CC3CC3)CC2)c2cc(F)ccc21.O=C(O)C(F)(F)F (configuration not stated) gave Mtb heat-shock: -15.82%. For Cc1ccc(CCN2C(=O)CC[C@H]3CN(Cc4cnn(C)c4)CC[C@H]32)o1 the result was LdMetRS: 20.57%. Cn1c(NCC(=O)N2CCCCC2)c(C#N)c(=O)n(C)c1=O read LdMetRS: 9.749%; Mtb heat-shock: -9.67%.

Result for CCN(CC1CN(CC2CCC2)CCO1)c1cccnn1 (configuration not stated) was LdMetRS: 13.79%; Mtb heat-shock: -6.873%. CN1CC2(CCN(C(=O)Cn3ncc4ccccc4c3=O)CC2)OC1=O read LdMetRS: 11.78%; Mtb heat-shock: -2.888%. Result for Cc1cccnc1NC(=O)N(CCO)Cc1ccsc1 was LdMetRS: 20.22%; Mtb heat-shock: -28.65%. Result for O=C(C1CCCC1)N1CCCC2(CCN(c3cnccn3)CC2)C1 was LdMetRS: 12.78%. With CC(C)c1noc(C(C)N2CCN(Cc3ccsc3)CC2)n1 (configuration not stated) the screen gave LdMetRS: 17.32%; Mtb heat-shock: -12.58%. Cc1ccc(C(=O)N2CC[C@]3(C[C@@H](OCc4ccccn4)CO3)C2)nc1.O=C(O)C(F)(F)F.O=C(O)C(F)(F)F read Mtb heat-shock: -19.57%. CC(C)c1ccnc(N[C@H]2COC[C@@H]2N2CCCC2)n1 gave LdMetRS: 10.05%; Mtb heat-shock: -32.4%. For O=C(O)C(F)(F)F.O=C(c1cscn1)N1CCCC2(CCN2Cc2cccc(F)c2)C1 (configuration not stated) the result was Mtb heat-shock: -46.11%.

CCC(=O)NCCc1cc2nc(-c3ccncc3)ccn2n1 gave LdMetRS: 4.651%; Mtb heat-shock: 9.569%. With Cc1cc(C)n(CCCNC(=O)NCc2c(C)cc(C)[nH]c2=O)n1 the screen gave LdMetRS: 2.419%; Mtb heat-shock: 7.561%. [H][C@]12CC[C@]([H])(CN(C3Cc4ccccc4C3)C1)N(Cc1nc(CC)no1)C2 read Mtb heat-shock: 18.74%. Result for COc1cccc(C(=O)N2C[C@@H](CN(C)CCO)[C@@H](CO)C2)c1C was LdMetRS: 7.801%; Mtb heat-shock: -8.689%. Result for Cc1ncc2c(n1)CCN(Cc1nc(Cc3ccccc3)no1)C2 was LdMetRS: 9.278%; Mtb heat-shock: 24.65%. Result for COc1ccc(CNCC2CCN(c3ccccc3OC)C2)cc1O (configuration not stated) was LdMetRS: 25.56%; Mtb heat-shock: 2.532%. Result for COCc1cccc(CNC(=O)CNc2ccccc2C(C)=O)c1 was LdMetRS: 4.178%; Mtb heat-shock: -14.14%. With CN1CCC(Cc2cccc(-c3cc(F)ccc3C(=O)O)n2)CC1 the screen gave LdMetRS: 14.69%; Mtb heat-shock: -3.327%.

O[C@@H]1C[C@@](CNCc2ccc(Cl)cc2)(COc2cccnc2)C[C@@H]1O read LdMetRS: 9.831%. O=C(Nc1ccccc1)C1CN(CC2CCOCC2)CC12CCOCC2.O=C(O)C(F)(F)F (configuration not stated) read Mtb heat-shock: -25.1%. With O=C(c1ccco1)N1C[C@H]2CCCN(CC3CCOCC3)[C@H]2C1 the screen gave LdMetRS: 14.16%. CS(=O)(=O)CCCN1CCN(C(C#N)c2ccccc2)CC1 (configuration not stated) read LdMetRS: 17.54%; Mtb heat-shock: -3.228%. CC(=O)NCC(=O)N1CCn2cc(CN3CCN(C)CC3)nc2C1 read LdMetRS: 6.299%. With CCC(C)C(=O)N(Cc1ccccn1)C1CC1 (configuration not stated) the screen gave LdMetRS: 7.666%; Mtb heat-shock: -15.83%. CCOCCn1nc(C)cc1C(=O)N1CC[C@](C)(O)[C@H](C)C1 gave LdMetRS: 18.48%; Mtb heat-shock: -36.22%. For OC1(CN2CCC(Cc3ccccc3)CC2)CCC1 the result was LdMetRS: -2.506%; Mtb heat-shock: -21.62%.

COCCCN(Cc1cnc(-c2ccccn2)nc1)C1CCN(C)CC1 gave LdMetRS: 14.36%; Mtb heat-shock: 14.23%.

The last 4 entries again:

* CCC(C)C(=O)N(Cc1ccccn1)C1CC1 (configuration not stated) | LdMetRS: 7.666%; Mtb heat-shock: -15.83%
* CCOCCn1nc(C)cc1C(=O)N1CC[C@](C)(O)[C@H](C)C1 | LdMetRS: 18.48%; Mtb heat-shock: -36.22%
* OC1(CN2CCC(Cc3ccccc3)CC2)CCC1 | LdMetRS: -2.506%; Mtb heat-shock: -21.62%
* COCCCN(Cc1cnc(-c2ccccn2)nc1)C1CCN(C)CC1 | LdMetRS: 14.36%; Mtb heat-shock: 14.23%

Measurements from “University of Dundee, Small-Polar-MMV Screening Library” (2021), ChEMBL document CHEMBL3988442.